Data as given in PubChem BioAssay AID743121 (NCATS, 2013).
Shown is an unselected part of about 26,000 reagents. In the full data, 167 (0.63%) were called active. 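Calls are per gene from RSA p-values that are not deposited; an individual active-marked siRNA can sensitise only weakly.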 Further read-outs or replicates are left out here.

Aim: 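Partners whose loss is lethal together with topoisomerase I blockade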 (primary screen)
Cells: MDA-MB-231 cells, a human breast cancer line
Knock-down reagent: single siRNA against human genes, 20 nM siRNA (0.8 pmol per well)
Duration: 120 h (drug added 48 h after transfection, read 72 h later)
Challenge: camptothecin 20 nM (about EC30) for 72 h; vehicle 0.1% DMSO in parallel plates
Measurement: 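CellTiter-Glo ATP signal, scaled to control siRNA as percent viability; sensitisation given as log2 of untreated divided by camptothecin-treated viability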
Scale: log2 vehicle/camptothecin viability: higher = stronger sensitisation to camptothecin; viability with camptothecin: higher = more viable cells
Hit rule: 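Each gene scored by redundant siRNA activity (RSA) over its individual siRNA ratios; a gene is called active at p < 0.001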

gene knocked down	PubChem SID	log2 vehicle/camptothecin viability	viability with camptothecin (% of control)	outcome
MYCN (GeneID 4613)	SID164376670	-0.0962	68.6	inactive
MYCN (GeneID 4613)	SID164376674	0.063	81.1	inactive
MYCN (GeneID 4613)	SID164376675	-0.339	114	inactive
MYCN (GeneID 4613)	SID164376678	-0.64	89.5	inactive
P2RY12 (GeneID 64805)	SID164504184	-0.131	69.6	inactive
P2RY12 (GeneID 64805)	SID164504185	-0.138	56	inactive
P2RY12 (GeneID 64805)	SID164504189	-0.523	91.2	inactive
P2RY12 (GeneID 64805)	SID164504191	-0.277	88.3	inactive
PLXNA1 (GeneID 5361)	SID164381300	0.0964	78.1	inactive
PLXNA1 (GeneID 5361)	SID164381301	-0.587	79.5	inactive
PLXNA1 (GeneID 5361)	SID164381304	0.663	40.1	inactive
PLXNA1 (GeneID 5361)	SID164381305	-0.205	70.6	inactive
TRDMT1 (GeneID 1787)	SID164361925	0.385	51	inactive
TRDMT1 (GeneID 1787)	SID164361926	-0.202	104	inactive
TRDMT1 (GeneID 1787)	SID164361927	0.207	87.3	inactive
APOA5 (GeneID 116519)	SID164563327	0.195	24.4	inactive
APOA5 (GeneID 116519)	SID164563330	-0.441	62.2	inactive
APOA5 (GeneID 116519)	SID164563331	-0.445	82	inactive
GRB10 (GeneID 2887)	SID164367586	-0.163	85.3	inactive
GRB10 (GeneID 2887)	SID164367587	-0.0106	97.7	inactive
GRB10 (GeneID 2887)	SID164367588	-0.27	71.5	inactive
GRB10 (GeneID 2887)	SID164367590	0.223	66.5	inactive
DTX3 (GeneID 196403)	SID164584813	-0.349	118	inactive
DTX3 (GeneID 196403)	SID164584818	-0.374	70.1	inactive
DTX3 (GeneID 196403)	SID164584819	-0.0417	105	inactive
DTX3 (GeneID 196403)	SID164584820	-0.0984	71.4	inactive

Only “viability with camptothecin (% of control)”, for 11 of the entries above:
TRDMT1 (GeneID 1787) [SID164361926]: 104
TRDMT1 (GeneID 1787) [SID164361927]: 87.3
APOA5 (GeneID 116519) [SID164563327]: 24.4
APOA5 (GeneID 116519) [SID164563330]: 62.2
APOA5 (GeneID 116519) [SID164563331]: 82
GRB10 (GeneID 2887) [SID164367586]: 85.3
GRB10 (GeneID 2887) [SID164367587]: 97.7
GRB10 (GeneID 2887) [SID164367588]: 71.5
GRB10 (GeneID 2887) [SID164367590]: 66.5
DTX3 (GeneID 196403) [SID164584813]: 118
DTX3 (GeneID 196403) [SID164584818]: 70.1

The results go on.
gene knocked down	PubChem SID	log2 vehicle/camptothecin viability	viability with camptothecin (% of control)	outcome
TOMM20 (GeneID 9804)	SID164406443	-0.161	82.5	inactive
TOMM20 (GeneID 9804)	SID164406449	-0.164	106	inactive
TOMM20 (GeneID 9804)	SID164406450	-0.708	111	inactive
TOMM20 (GeneID 9804)	SID164406451	-0.459	63.6	inactive
USP31 (GeneID 57478)	SID164494356	-0.345	96.9	inactive
USP31 (GeneID 57478)	SID164494358	-0.109	96	inactive
USP31 (GeneID 57478)	SID164494359	-0.418	54.4	inactive
USP31 (GeneID 57478)	SID164494361	0.585	25.2	inactive
PHKA1 (GeneID 5255)	SID164380563	-0.245	117	inactive
PHKA1 (GeneID 5255)	SID164380565	-0.338	51.3	inactive
PHKA1 (GeneID 5255)	SID164380566	-0.341	60.8	inactive
PHKA1 (GeneID 5255)	SID164380567	-0.374	71.2	inactive
PRPS2 (GeneID 5634)	SID164382993	0.156	69.6	inactive
PRPS2 (GeneID 5634)	SID164382994	-0.204	119	inactive
PRPS2 (GeneID 5634)	SID164382995	-0.295	74.3	inactive
PRPS2 (GeneID 5634)	SID164382996	0.171	33.2	inactive
ENPP2 (GeneID 5168)	SID164380074	0.028	77.1	inactive
ENPP2 (GeneID 5168)	SID164380079	0.363	77.6	inactive
ENPP2 (GeneID 5168)	SID164380081	-0.358	108	inactive
ENPP2 (GeneID 5168)	SID164380082	-0.114	88.7	inactive
RAD23B (GeneID 5887)	SID164384503	0.114	93.5	inactive
RAD23B (GeneID 5887)	SID164384505	-0.195	112	inactive
RAD23B (GeneID 5887)	SID164384506	-0.0819	73.7	inactive
PDCD6IP (GeneID 10015)	SID164408081	0.0217	34.1	inactive
PDCD6IP (GeneID 10015)	SID164408084	0.231	80.1	inactive
PDCD6IP (GeneID 10015)	SID164408089	0.332	77.2	inactive
ATP1A1 (GeneID 476)	SID164354498	-0.348	78.1	inactive
ATP1A1 (GeneID 476)	SID164354501	-0.111	109	inactive
ATP1A1 (GeneID 476)	SID164354504	-0.325	99.7	inactive
ATP1A1 (GeneID 476)	SID164354505	-0.282	96.4	inactive
MAP3K5 (GeneID 4217)	SID164375293	0.41	69.5	inactive
MAP3K5 (GeneID 4217)	SID164375294	-0.137	110	inactive
MAP3K5 (GeneID 4217)	SID164375295	-0.354	63.2	inactive
MAP3K5 (GeneID 4217)	SID164375296	0.34	62.3	inactive
CTNS (GeneID 1497)	SID164360413	-0.474	52.2	inactive
CTNS (GeneID 1497)	SID164360414	-0.325	107	inactive
CTNS (GeneID 1497)	SID164360418	-0.349	90.3	inactive
SIAH1 (GeneID 6477)	SID164388003	0.164	84.1	inactive
SIAH1 (GeneID 6477)	SID164388004	-0.057	78.4	inactive
SIAH1 (GeneID 6477)	SID164388009	-0.503	60.5	inactive
MAPK8IP3 (GeneID 23162)	SID164446032	-0.472	107	inactive
MAPK8IP3 (GeneID 23162)	SID164446033	0.335	26.2	inactive
MAPK8IP3 (GeneID 23162)	SID164446034	0.011	31.7	inactive
MAPK8IP3 (GeneID 23162)	SID164446036	-0.36	57.9	inactive
